Experimental data taken from PubChem BioAssay AID1117319 (Southern Research Institute, 2015).
About 1,500 (0.58%) of roughly 260,000 compounds were called active. This list was built around the results that the source calls inconclusive (neither active nor inactive); the mix of calls is not that of the screen.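 The calls were made as follows: active = inhibition above a set limit at one or more doses, reproduced on every date tested; inconclusive = results disagree between test dates, or hit never tested in dose response; inactive = the rest.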

The chains behind the UniProt entries cited, without tags or fusion partners. Where a name states a change or a piece, a line headed by the entry shows the natural chain unless it says otherwise.
UniProt P69720: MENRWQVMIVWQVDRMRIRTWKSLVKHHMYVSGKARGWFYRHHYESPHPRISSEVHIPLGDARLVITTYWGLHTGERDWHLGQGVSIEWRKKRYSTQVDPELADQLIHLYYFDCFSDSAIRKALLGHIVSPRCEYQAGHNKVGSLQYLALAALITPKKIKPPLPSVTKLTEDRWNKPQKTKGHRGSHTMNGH
UniProt P69721: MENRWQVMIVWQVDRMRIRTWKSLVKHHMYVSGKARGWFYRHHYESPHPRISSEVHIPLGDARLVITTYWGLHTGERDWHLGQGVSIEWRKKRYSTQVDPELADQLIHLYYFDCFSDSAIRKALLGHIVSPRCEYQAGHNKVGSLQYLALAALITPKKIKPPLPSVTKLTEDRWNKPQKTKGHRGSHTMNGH
UniProt P69722: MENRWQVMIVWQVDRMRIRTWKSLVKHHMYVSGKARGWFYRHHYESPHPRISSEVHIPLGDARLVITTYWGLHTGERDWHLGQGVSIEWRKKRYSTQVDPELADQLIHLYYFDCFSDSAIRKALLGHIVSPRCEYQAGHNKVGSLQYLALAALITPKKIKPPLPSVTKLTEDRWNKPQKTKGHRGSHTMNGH
UniProt P69723: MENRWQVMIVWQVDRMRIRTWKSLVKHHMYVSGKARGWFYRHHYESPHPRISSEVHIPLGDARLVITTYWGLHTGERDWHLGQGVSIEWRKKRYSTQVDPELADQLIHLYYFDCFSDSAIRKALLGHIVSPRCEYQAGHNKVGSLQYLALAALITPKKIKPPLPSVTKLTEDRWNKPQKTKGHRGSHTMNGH
UniProt Q9HC16: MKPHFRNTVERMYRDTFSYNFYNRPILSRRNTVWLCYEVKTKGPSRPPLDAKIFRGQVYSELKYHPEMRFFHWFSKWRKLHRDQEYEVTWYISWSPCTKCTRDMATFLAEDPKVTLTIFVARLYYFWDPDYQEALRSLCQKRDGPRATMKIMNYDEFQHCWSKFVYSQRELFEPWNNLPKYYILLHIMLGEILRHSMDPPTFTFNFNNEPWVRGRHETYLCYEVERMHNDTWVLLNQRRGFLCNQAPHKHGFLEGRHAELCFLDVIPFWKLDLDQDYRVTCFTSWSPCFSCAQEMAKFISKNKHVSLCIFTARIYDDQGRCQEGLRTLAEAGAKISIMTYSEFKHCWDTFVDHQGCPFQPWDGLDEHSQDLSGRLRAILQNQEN

What follows are molecules tested against Virion infectivity factor (Human immunodeficiency virus type 1 group M subtype B (isolate BH10)) + Virion infectivity factor (Human immunodeficiency virus type 1 group M subtype B (isolate BRU/LAI)) + Virion infectivity factor (Human immunodeficiency virus type 1 group M subtype B (isolate PCV12)) + Virion infectivity factor (Human immunodeficiency virus type 1 group M subtype B (isolate HXB2)) + DNA dC->dU-editing enzyme APOBEC-3G (Homo sapiens) (UniProt P69720+P69721+P69722+P69723+Q9HC16) (assay: inhibitors of Vif binding to APOBEC3G peptide, primary screen, biochemical, TR-FRET, GST-Vif 1-94, biotin-A3G peptide, dose response retest (AID 1117319;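 also: Vif residues 1-94 fused to GST binding biotinylated APOBEC3G peptide 110-148; 0% = full assay without inhibitor and 100% = GST in place of GST-Vif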)). Details: hits give high values.

SMILES	inhibition
CC(O)c1nc2ccc(Cc3ccc4nc(C(C)O)[nH]c4c3)cc2[nH]1 (stereo not drawn)	inconclusive: 50.4%
C=CCn1c(=S)[nH]c2scc(-c3ccco3)c2c1=O	inconclusive: 61.6%
CCOc1ccc(NC(=O)CCS(=O)(=O)c2ccc(C)cc2)cc1	inactive: -2.94%
CCOC(=O)C(C(=O)NCc1ccc(F)cc1)c1ncc(C(F)(F)F)cc1Cl (stereo not drawn)	inactive: 5.68%
CCOc1ccc(NC(=O)CN2CCN(CC(=O)Nc3ccc(Cl)c(C(F)(F)F)c3)CC2)cc1	inconclusive: 60.2%
CSc1ccccc1NC(=O)COc1ccccc1Cl	inconclusive: 34.2%
COc1ccc2nc(Cl)c(C3CC(c4ccco4)=NN3C(=O)CCC(=O)O)cc2c1 (stereo not drawn)	inconclusive: 35.7%
COc1ccc2c(C(=O)CN3CCC(C)CC3)c[nH]c2c1	inconclusive: 52.6%
O=C(/C=C/Nc1ccc(Oc2ccccc2)cc1)c1ccco1	inactive: 12.6%
CCCCCOC(=O)Cc1c(O)c2ccccc2n(C)c1=O	inconclusive: 41.1%
COCc1cc(CN2CCCC2)c(O)c2ncccc12	inconclusive: 62.8%
CC(C)NCC(O)COCCOc1ccc(Br)cc1 (stereo not drawn)	inconclusive: 44.9%
CCOC(=O)NC(=O)CSc1nnnn1-c1ccccc1	inconclusive: 35.9%
O=C(COc1c(F)c(F)cc(F)c1F)NNC(=O)CC1CCS(=O)(=O)C1 (stereo not drawn)	inactive: -4.18%
CC1(C)CSC(=NCc2ccccc2)N1C(=O)c1cccc([N+](=O)[O-])c1	inconclusive: 34.6%
CCn1c(=O)cc(SCC(=O)Nc2ccc3c(c2)OCCO3)c2ccccc21	inconclusive: 53%
CCOc1ccc(C(=O)NCC(C)C)cc1	inactive: 1.08%
CCOCCCn1c(=NC(C)=O)c(C(=O)OCC)cc2c(=O)n3ccccc3nc21	inconclusive: 39.3%
CN1c2ccccc2C(O)=C(C(=S)Nc2ccc(F)c(Cl)c2)S1(=O)=O	inactive: -0.79%
Cc1ccc(C)c(NS(=O)(=O)c2cc(Br)cnc2N)c1	inconclusive: 52.6%

SMILES	inhibition
O=[N+]([O-])c1ccc2nc(-c3ccc(Cl)cc3)[nH]c2c1	inconclusive: 52.5%
CC1=NN(c2ccc(C(=O)O)cc2)C(=O)/C1=C\c1ccc(OC(=O)c2cccs2)cc1	inconclusive: 40%
COc1ccc(C2=CC3=C(Br)C(=O)C(C)(OC(=O)c4ccco4)C(=O)C3=CO2)cc1 (stereo not drawn)	inconclusive: 51.5%
CN(C)C(=O)CSc1nnc(Cc2ccccc2)n1Cc1ccco1	inactive: 7.45%
CC1(C)CC(=O)C2=C(C1)N(c1cccnc1)C(N)=C(C#N)C2c1cccs1 (stereo not drawn)	inconclusive: 40.6%
C=CCn1c(O)c(C(CC)=Nc2ccccc2NC(=O)CC)c(=O)[nH]c1=O	inactive: 30.8%
CCOc1ccccc1-c1nc(C(N)=O)c2[nH]c(=O)n(-c3ccc(F)cc3)c2n1	inconclusive: 50.4%
CC(NCC1(N2CCOCC2)CCCCC1)C(=O)Nc1ccc(Cl)cc1Cl (stereo not drawn)	inconclusive: 38.4%
COc1ccc(NC(=O)c2nc[nH]c2C(=O)N(C)Cc2ccccc2)cc1	inconclusive: 37.3%
Cc1cc(C)n2cc(CSCc3ccco3)nc2n1	inconclusive: 35.4%
CCOc1cc(S(=O)(=O)NCc2ccco2)c(OCC)cc1-n1cnnn1	inconclusive: 38.8%
Cc1cccc(NC(=S)N(CCCN2CCOCC2)Cc2ccco2)c1	inconclusive: 37.3%
Cc1cc(SCC(=O)NC(=O)c2cccn2C)nc2ccccc12	inconclusive: 43.5%
Nc1ccc(N2CCN(c3ccc(Cl)c(Cl)c3)CC2)cc1	inactive: 22.2%
COC(=O)Cc1c(C)c2ccc(OCc3nn[nH]n3)cc2oc1=O	inconclusive: 48.9%
Cc1csc(NC(=O)CSc2nnc(Cc3cccn3C)n2CCc2ccccc2)n1	inconclusive: 34%
O=S(=O)(Nc1ccccc1O)c1ccc(Cl)nc1	inconclusive: 48.2%
COc1cccc(NC(=O)c2ccc3snnc3c2)c1	inconclusive: 35.3%
O/N=C1\CCCc2oc3c(c21)CCCC3	inconclusive: 46.1%
CCn1cc(C2=NC(CC(C)C)CO2)c2ccccc21 (stereo not drawn)	inconclusive: 37.1%

SMILES	inhibition
COc1cccc(NC2CC(=O)N(CCc3ccccc3)C2=O)c1 (stereo not drawn)	inactive: 1.52%
CN(C)c1ccc(CNC(=O)C2CCN(S(=O)(=O)c3ccc4c(c3)oc(=O)n4C)CC2)cc1	inactive: -3.31%
CCn1c2ccccc2c2cc(NC(=O)c3cccc([N+](=O)[O-])c3C)ccc21	inactive: -6.86%
Cc1ccccc1C(=O)NC1CCSC1=O (stereo not drawn)	inconclusive: 45.6%
C/C(=N\Nc1ccc(S(N)(=O)=O)cc1[N+](=O)[O-])c1ccc2c(c1)OCO2	inconclusive: 49.4%
OCC1(Cc2ccc(Cl)cc2)CCN(Cc2ccc(F)c(F)c2)CC1	inconclusive: 59.8%
O=C(c1cccc(C(=O)N2CCN(c3ncccn3)CC2)c1)N1CCN(c2ncccn2)CC1	inactive: 17.4%
CC(C)CCNC(=O)C12CN(Cc3ccccc3)CC1C(c1cccc([N+](=O)[O-])c1)=NO2 (stereo not drawn)	inconclusive: 62.9%
O=C(N/N=C/c1sc(N2CCOCC2)nc1-c1ccccc1)c1ccccc1O	inconclusive: 36.7%
O=C(C[n+]1ccc(CCSc2ccc(F)cc2)cc1)c1ccccc1	inconclusive: 40.5%
OCC(CO)(CO)N=Cc1cc(Br)ccc1O	inconclusive: 42.8%
CC(C)NC(=O)COc1ncnc2sccc12	inconclusive: 39%
COc1ccc(C(=O)NCc2ccncc2)cc1OC	inactive: 24.8%
N=C1C(c2ccccc2)=C(O)CN1c1cccc(S(=O)(=O)N2CCOCC2)c1	inconclusive: 48.1%
CCOC(=O)C1=C(C)N(c2ccc(C)cc2)C(=O)/C1=C\c1ccc(O)c(OC)c1	inconclusive: 36.3%
COc1ccc(NC(=O)C2CCCN2c2ccc(OC)c(OC)c2)cc1OC (stereo not drawn)	inconclusive: 39.5%
O=[n+]1cc(-c2ccc(Br)cc2)n([O-])c2c1CCC2	inactive: 3.02%
CC(=O)c1ccc(NC(=O)CCCN2C(=O)/C(=C/C(C)=C/c3ccccc3)SC2=S)cc1	inactive: 4.61%

An excerpt of these results, with bars between the fields.
SMILES | inhibition
CCCCCOC(=O)Cc1c(O)c2ccccc2n(C)c1=O | inconclusive: 41.1%
CN(C)c1ccc(CNC(=O)C2CCN(S(=O)(=O)c3ccc4c(c3)oc(=O)n4C)CC2)cc1 | inactive: -3.31%
